Reference: PMC11922060
Results are given in words; binding and its absence hold for the method and conditions named. Some entries that bind do so weakly or less than the wild type. For some of these results: Tags and fused reporters may be left off the sequences shown.

Tests used:
[1] = biological target: Sumo-tagged Drosophila Spd-2 SP2D (Spd-2 697-998), wild type (D. melanogaster) (UniProt Q9VV79); assay: SEC-MALS; Sumo-tagged SP2D at a range of protein concentrations (indicated in the figure); Superose 12 Increase 10/300 GL, 50 mM tris pH 8.0, 150 mM NaCl, 1 mM DTT; both purified
[2] = biological target: Drosophila Spd-2 ASH3 domain (Spd-2 1047-1146) (D. melanogaster) (UniProt Q9VV79); assay: SEC-MALS; untagged protein (His tag cleaved); Superose 12 Increase 10/300 GL, 50 mM tris pH 8.0, 150 mM NaCl, 1 mM DTT; both purified
[3] = biological target: Sumo-tagged Drosophila Spd-2 SP2D (Spd-2 697-998) P817D (D. melanogaster) (UniProt Q9VV79); assay: SEC-MALS; Sumo-tagged SP2D at a range of protein concentrations (indicated in the figure); Superose 12 Increase 10/300 GL, 50 mM tris pH 8.0, 150 mM NaCl, 1 mM DTT; both purified
[4] = biological target: Sumo-tagged Drosophila Spd-2 SP2D (Spd-2 697-998) F822D (D. melanogaster) (UniProt Q9VV79); assay: as above

B1: Sumo-tagged Drosophila Spd-2 SP2D (Spd-2 697-998), wild type (domain or fragment, UniProt Q9VV79 697-998)
chain: LLPLKVTHTTLCWGSTKLRTDVRKSMQVKNTADKRLVIRLGIQGPGFQLVGTDSSTITLQAMECRSVVINFCPTVCGAAIGALSFYAPPGAHNSNQPGLEIPLYGYGGSASITINGLLKGPVGASFLTIGDVCELSAGPLSANLKFHNKGPLTAFVGISVDSTVLMKLRLSEAFEVRPSRLILPPNSERCVQILFRPNREDLKNILKKTAQVLTLANMRIFCGDEPNRQRMRSLVQRMSSRQREKLTSPMLDSIWGEFPDEQPVRNIGQLNEPPEFILDLVTVVRIIDVALTLNRDFDESSE
For B1, the binding [1] was “binds weakly”.

B2: Drosophila Spd-2 ASH3 domain (Spd-2 1047-1146) (domain or fragment, UniProt Q9VV79 1047-1146)
chain: VEQNWCVQPGLLEFGVGCSPLATLSVTNSFCSRQLIEVTCNVPDLVRISPSECYVSPDGGHAEIDVRLLRSPRQDLLEREPLIVVSMENERISVPISFKF
For B2, the binding [2] was “no binding”.

B3: Sumo-tagged Drosophila Spd-2 SP2D (Spd-2 697-998) P817D (domain or fragment, UniProt Q9VV79 697-998)
chain: LLPLKVTHTTLCWGSTKLRTDVRKSMQVKNTADKRLVIRLGIQGPGFQLVGTDSSTITLQAMECRSVVINFCPTVCGAAIGALSFYAPPGAHNSNQPGLEIPLYGYGGSASITINGLLKGDVGASFLTIGDVCELSAGPLSANLKFHNKGPLTAFVGISVDSTVLMKLRLSEAFEVRPSRLILPPNSERCVQILFRPNREDLKNILKKTAQVLTLANMRIFCGDEPNRQRMRSLVQRMSSRQREKLTSPMLDSIWGEFPDEQPVRNIGQLNEPPEFILDLVTVVRIIDVALTLNRDFDESSE
In the case of B3, the binding [3] is reported as “no binding”.

B4: Sumo-tagged Drosophila Spd-2 SP2D (Spd-2 697-998) F822D (domain or fragment, UniProt Q9VV79 697-998)
chain: LLPLKVTHTTLCWGSTKLRTDVRKSMQVKNTADKRLVIRLGIQGPGFQLVGTDSSTITLQAMECRSVVINFCPTVCGAAIGALSFYAPPGAHNSNQPGLEIPLYGYGGSASITINGLLKGPVGASDLTIGDVCELSAGPLSANLKFHNKGPLTAFVGISVDSTVLMKLRLSEAFEVRPSRLILPPNSERCVQILFRPNREDLKNILKKTAQVLTLANMRIFCGDEPNRQRMRSLVQRMSSRQREKLTSPMLDSIWGEFPDEQPVRNIGQLNEPPEFILDLVTVVRIIDVALTLNRDFDESSE
For B4, the binding [4] was “no binding”.
